In the assay the target is eIF2Bα homodimer (eIF2Bα2) (human) (UniProt Q14232). As to the kind of experiment: cryo-EM structure; apo eIF2B decamer from 20 μM eIF2Bβγδε and 11 μM eIF2Bα2 in 20 mM HEPES-KOH, 200 mM KCl, 5 mM MgCl2, 1 mM TCEP, diluted to 750 nM; both purified.

No constants are given. Whether binding was seen depends on the method and setting. Some binding calls cover weakened binding; strength is not graded here.

B1: eIF2Bα homodimer (eIF2Bα2) (protein, UniProt Q14232 1-305)
chain: MDDKELIEYFKSQMKEDPDMASAVAAIRTLLEFLKRDKGETIQGLRANLTSAIETLCGVDSSVAVSSGGELFLRFISLASLEYSDYSKCKKIMIERGELFLRRISLSRNKIADLCHTFIKDGATILTHAYSRVVLRVLEAAVAAKKRFSVYVTESQPDLSGKKMAKALCHLNVPVTVVLDAAVGYIMEKADLVIVGAEGVVENGGIINKIGTNQMAVCAKAQNKPFYVVAESFKFVRLFPLNQQDVPDKFKYKADTLKVAQTGQDLKEEHPWVDYTAPSLITLLFTDLGVLTPSAVSDELIKLYL
For the molecule B1, the binding entry was “binds”.

The record behind these values is article PMC7990499, “eIF2B conformation and assembly state regulate the integrated stress response” (eLife, 2021).
